Results published in patent US6348571B1, “Corticotropin release inhibiting factor and methods of using same” (Northwestern University, priority 1994, dated 2002).
For some assays here: Not every detail of the peptide structures is certain; ends, links or a residue may be inferred. For some assays here: For at least one compound, name, drawing or mass did not settle the structure. Ends that are not written are not given here.

What was measured:
AtT-20 cells [1] = experiment: Dexamethasone effect on ACTH secretion in untransfected and stably transfected AtT-20 cells; assay type: cell-based, mouse
AtT-20 cells [2] = experiment: Bioassay of synthetic prepro-TRH peptides: ACTH secretion in AtT-20 cells; assay type: cell-based, mouse; conditions: peptide 10^-10-10^-6 M, 4 hours, 50 nM CRF
Method: (§1) The bioactivity of various synthetic peptides corresponding to the various prepro-TRH intervening sequences was assessed in AtT-20 or primary anterior pituitary cells. All experiments were conducted in triplicate. To perform this assay, AtT-20 cells were plated at a density of 10^5 cells/well in 24 well plates. After 24 hours, the medium was removed and replaced with steroid-free medium containing the test peptide at a concentration of 10^−10-10^−6 M. When primary pituitary cultures were used, freshly dispersed anterior pituitary cells (1-2×10^5 cells/well) were plated in 24 well plates for 48 hours using steroid free media. Again, after 24 hours, the medium was removed and replaced with steroid-free medium containing the test peptide at a concentration of 10^−10-10^−6 M. The supernatants from the cells were harvested after 4 hours of incubation under unstimulated or CRF-stimulated conditions. AtT-20 cells were stimulated with 50 nM CRF and primary pituitary cells were stimulated with 10 nM CRF. The supernatants were centrifuged and stored at −80° C.
(§2) ACTH-like immunoreactivity was measured using an antiserum which reacts with amino acids 1-24 and 1-39 on ACTH on an equimolar basis. The assay is described in Redei et al. (1988, Endocrinology, 123:2736-2743). For these studies, ^125I-ACTH 1-39 was used as a tracer. This assay is capable of detecting as little as 3 pg ACTH/tube. […]

[3] = test system: primary anterior pituitary cells; experiment: Bioassay of synthetic prepro-TRH peptides: ACTH secretion in primary anterior pituitary cells; assay type: cell-based; conditions: primary pituitary cell cultures, 10 nM CRF
Method: as §1, §2

plasma CORT = experiment: Basal and swim-stress induced plasma CORT after iv CRIF; assay type: in vivo, Wistar rats; conditions: 20 μg iv, p<0.01
Wistar rats = experiment: Porsolt swim test after iv CRIF; assay type: in vivo; conditions: 20 μg iv, second 5 minutes of the 15 minute Porsolt swim test
plasma ACTH and CORT = experiment: ACTH and CORT response to intermittent footshock stress after iv prepro-TRH 178-199; assay type: in vivo, Wistar rats; conditions: footshock stressed rats
[4] = test system: ACTH, corticosterone (CORT) and prolactin (PRL) levels; experiment: Restraint stress-induced hormone secretion after iv CRIF; assay type: in vivo, rats
rats [5] = experiment: Open field test after icv CRIF; assay type: in vivo
rats [6] = experiment: Light/dark box test after icv CRIF; assay type: in vivo
F344XBN rats = experiment: Forced swim test after sub-acute icv administration; assay type: in vivo; conditions: equimolar 2.3 nmol/kg (2.2 μg/kg 191-199; 6 μg/kg 178-199)
Method: In FIG. 20 there is shown data which establish that prepro-TRH 191-199 decreased immobility in the forced swim test when the peptide was administered to a rat icv. In this experiment, adult male Sprague-Dawley or F1 Brown Norway/Fisher344 rats were used in these experiments. Rats were implanted with cannulae into the lateral ventricle as described previously (McGivern, 1997, J. Neurosci. 17:4886-4894). For the stereotaxic surgery, animals were anesthetized (ketamine, 50 mg/kg/xylazine, 8 mg/kg) and positioned in a stereotaxic head fame. At the end of behavioral testing, placements will be verified by anesthetizing the animal with pentobarbital (45 mg/kg) and injecting 1 μl tryphan blue staining solution through the cannulae just prior to decapitation. Only data from animals with correct placement were included in the analysis.
At least 7 days after the stereotaxic surgery, animals were subjected to an initial 15 minute swim pretest, followed by a 5-minute swim test 24 hours later. Rats received two injections of sterile vehicle or prepro-TRH 178-199 (1.5, 3.0, 6.0 or 12.0 μg/kg; 0.6, 1.2., 2.3 and 4.6 nmol/kg) in […] between the pretest and the test. 15 minutes after the initial (pre)-swim and 5 minutes before the test swim. […]

[7] = iv 5 minutes prior to 5 minutes restraint
[8] = 6 μg/kg icv, 30 minutes, vs vehicle

## C[C@@H]1C[C@H]2[C@@H]3CCC4=CC(=O)C=C[C@]4(C)[C@@]3(F)[C@@H](O)C[C@]2(C)[C@@]1(O)C(=O)CO [DEX, dexamethasone]
AtT-20 cells [1]; rat prepro-TRH stably transfected AtT-20 cells, most marked at lower concentrations
  inhibition of ACTH secretion in transfected vs untransfected cells: higher level of inhibition of ACTH secretion than did untransfected cells
AtT-20 cells [1]; untransfected and prepro-TRH transfected AtT-20 cells, 1-1000 nM, 24 hours
  ACTH secretion: suppressed ACTH secretion
AtT-20 cells [1]; ΔBstEII transfected cells, low concentrations
  inhibition of ACTH secretion: no inhibition of ACTH secretion

## FIDPELQRSWEEKEGEGVLMPE [prepro-TRH 178-199]
AtT-20 cells [2]
  bioactivity: basal and CRF-stimulated ACTH secretion: exhibited bioactivity
[3]
  CRIF activity (ACTH secretion): exhibited CRIF activity in a dose response manner
Plasma CORT; 15 minutes forced swim
  stress-induced CORT levels: inhibited, to a significant degree
Plasma CORT; resting rats
  resting CORT levels: inhibited, to a significant degree
Wistar rats
  time spent floating: decrease
  time spent struggling: increase
Plasma ACTH and CORT; evident even at lower doses
  inhibition of plasma CORT levels: even more marked than inhibition of ACTH
Plasma ACTH and CORT; increasing amounts
  plasma levels of ACTH: significantly reduced
[4]; iv
  basal prolactin secretion: did not influence
[4]; [7]
  stress-induced rise in ACTH: significantly inhibited
  stress-induced rise in CORT: significantly inhibited
  stress-induced rise in PRL: significantly inhibited
Rats [5]; 0.6 μg/kg icv
  behavioral effect in open field: Little or no behavioral effect
Rats [5]; [8]
  activity: significant increases
  grooming behavior: significant increases
  rearing: significant increases
  sniffing: significant increases
Rats [6]; high dose icv, p<0.05
  number of crossings between the light and dark chambers: significantly increased
  total time spent in the light chamber: significantly increased
Rats [6]; icv, 15 minutes test
  initial latency period prior to entry into the dark chamber: No significant difference
Rats [6]; low dose icv
  total time spent in the light chamber: not affected
F344XBN rats; p<0.001
  floating in the forced swim test: significantly decreased
F344XBN rats; p<0.01
  climbing in the forced swim test: increased
